{"sequences": {"note": "Amino acid sequences for entries named in this document (tags omitted). A change or cut given only in a name is not applied to a line headed by its entry.", "UniProt O94782": "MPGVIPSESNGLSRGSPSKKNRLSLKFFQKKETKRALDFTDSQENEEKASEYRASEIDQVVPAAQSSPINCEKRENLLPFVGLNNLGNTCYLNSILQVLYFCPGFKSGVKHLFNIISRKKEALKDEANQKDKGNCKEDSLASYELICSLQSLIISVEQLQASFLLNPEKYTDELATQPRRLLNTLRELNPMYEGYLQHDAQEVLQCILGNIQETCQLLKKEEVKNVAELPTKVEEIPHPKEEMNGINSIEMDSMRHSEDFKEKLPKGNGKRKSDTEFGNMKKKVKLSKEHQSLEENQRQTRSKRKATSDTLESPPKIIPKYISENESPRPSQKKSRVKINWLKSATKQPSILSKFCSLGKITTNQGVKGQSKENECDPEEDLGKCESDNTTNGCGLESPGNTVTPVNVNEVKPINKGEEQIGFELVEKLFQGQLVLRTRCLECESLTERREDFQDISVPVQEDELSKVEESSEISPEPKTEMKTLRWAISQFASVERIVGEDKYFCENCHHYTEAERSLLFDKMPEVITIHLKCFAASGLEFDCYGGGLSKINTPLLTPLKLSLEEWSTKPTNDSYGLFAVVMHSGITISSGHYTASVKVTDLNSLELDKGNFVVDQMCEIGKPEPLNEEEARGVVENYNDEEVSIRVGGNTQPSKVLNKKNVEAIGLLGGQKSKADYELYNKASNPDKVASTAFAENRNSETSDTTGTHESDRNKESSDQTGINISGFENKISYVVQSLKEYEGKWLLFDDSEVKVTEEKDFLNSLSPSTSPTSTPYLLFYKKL"}, "source": "PubChem BioAssay AID743255", "about": "(National Center for Advancing Translational Sciences (NCATS), 2014)", "note": "Where “and” joins values, the source holds several entries; their conditions need not be identical. Equal entries are not always repeated. In all, about 390,000 compounds went through this assay and about 910 (0.23%) were called active. The shares of active, inactive and inconclusive entries below differ from those in the screen. Calls come from the whole dose curve; as a rule, active = well fitted inhibition curve with a large enough effect; inconclusive = small, poorly fitted or top-dose-only effect; inactive = no such curve, though single readings can be large or run the other way. Where the call is inconclusive, the potency comes from a doubtful curve fit. % is set by controls: 0 for no effect and ±100 for the full control effect; potency is the fitted concentration of half-maximal effect.", "data": [{"biological_target": "Ubiquitin carboxyl-terminal hydrolase 1 (Homo sapiens) (UniProt O94782)", "assay": "Inhibitors of USP1/UAF1: Primary Screen; note: nearly all actives have a fitted effect of over 60% in size", "conditions": "recombinant USP1/UAF1, Ub-Rhodamine cleavage fluorescence; activity change, negative = inhibition: at 57.1 µM (top of the series)", "summary_of_the_method": "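USP1/UAF1 complex at 1 nM was preincubated with compound for 15 min at room temperature, then Ub-Rho substrate (150nM final) was added. Fluorescence (480/540 nm) was read kinetically, 6 reads every 60 seconds.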", "values": [{"smiles": "O=C(C(=NNc1ccccc1)c1ccccc1)c1ccccc1", "Potency": "inconclusive: 50.1 µM [inhibitor, single point]"}, {"smiles": "COc1ccc([C@H]2CC(=O)C=C(c3ccc(SC)cc3)C2)cc1OC", "Potency": "inconclusive: 5.01 µM [inhibitor, partial curve]"}, {"smiles": "COc1ccc(CNC(=O)C(C)Cc2ccccc2)cc1O", "note": "(centres undefined)", "Potency": "inconclusive: 39.8 µM [inhibitor, partial curve, poor fit]"}, {"smiles": "CCN1CCN(S(=O)(=O)c2ccc(Cl)c(C(=O)N(C)C3CCCCC3)c2)CC1", "Potency": "inconclusive: 0.251 µM [inhibitor, full curve, poor fit]"}, {"smiles": "CN(C)/C=N/c1nc(-c2ccc3ccccc3c2)cs1", "Potency": "inconclusive: 35.5 µM [inhibitor, partial curve]"}, {"smiles": "COC(=O)c1ccc(-c2nn(C)c(=O)c3ccccc23)cc1", "Potency": "inconclusive: 0.794 µM [inhibitor, full curve, poor fit]"}, {"smiles": "CCN(C(=O)CSc1nc2ccc(O)cc2c(=O)n1-c1ccc(OC)c(OC)c1)C1CCS(=O)(=O)C1", "note": "(centres undefined)", "Potency": "inconclusive: 10 µM [inhibitor, partial curve, poor fit]"}, {"smiles": "COc1ccc(NC(=O)c2sc3nc[nH]c(=O)c3c2C)cc1OC", "activity change, negative = inhibition": "inactive: -19.3%"}, {"smiles": "CSc1nc2c(cnn2-c2ccccc2)c(=O)n1N", "activity change, negative = inhibition": "inactive: -21%"}, {"smiles": "O=C(/C=C/c1ccccc1)Nc1cc(NC(=O)/C=C/c2ccccc2)cc(C(=O)O)c1", "Potency": "inconclusive: 50.1 µM [inhibitor, partial curve, poor fit]"}, {"smiles": "Cc1ccc(C)c(Nc2nnc(-c3ccc(C)c(S(=O)(=O)N4CCCCC4)c3)c3ccccc23)c1", "Potency": "inconclusive: 0.708 µM [inhibitor, full curve]"}, {"smiles": "Cc1cc(Cl)ccc1OCC(=O)NCCC(=O)O", "Potency": "inconclusive: 35.5 µM [inhibitor, single point]"}, {"smiles": "COc1ccc(-c2nc(NC3=NCCCCC3)sc2C)cc1", "Potency": "inconclusive: 31.6 µM [inhibitor, partial curve]"}, {"smiles": "COc1ccc(SC[C@H](Cc2ccccc2)N2CC[C@@H](C)CCC2=O)cc1", "Potency": "inconclusive: 0.447 µM [inhibitor, full curve, poor fit]"}, {"smiles": "C[C@H](NC(=O)OCc1ccccc1)C(=O)NNC(=O)[C@H](C)NC(=O)OCc1ccccc1", "Potency": "inconclusive: 3.16 µM [inhibitor, full curve]"}, {"smiles": "CN1CCc2c(sc3c2C(=O)NC(c2ccc(OC(=O)c4ccc(Cl)cc4)cc2)N3)C1", "note": "(centres undefined)", "Potency": "inconclusive: 44.7 µM [inhibitor, partial curve, poor fit]"}, {"smiles": "CCOc1cc(/C=C2/C(=O)N(c3ccccc3)N=C2C)ccc1OC(=O)c1ccco1", "Potency": "inconclusive: 1.12 µM [inhibitor, full curve, poor fit]"}, {"smiles": "CCOC(=O)c1ccc(NC(=O)c2nc[nH]c2C(=O)N[C@@H](CC(C)C)C(=O)OCc2ccccc2)cc1", "activity change, negative = inhibition": "inactive: -12.6%"}, {"smiles": "Cc1cccc(NC(=O)c2sc(Cl)nc2C)c1C", "activity change, negative = inhibition": "inactive: -15.8%"}, {"smiles": "Nc1ccc(C(=O)Nc2ccc3cc(S(=O)(=O)O)ccc3c2)cc1", "activity change, negative = inhibition": "inactive: -12.3%"}, {"smiles": "N#C/C(=C\\c1ccc(-c2ccc(C(=O)O)cc2)o1)c1nc2ccccc2[nH]1", "Potency": "active: 3.55 µM and active: 28.2 µM"}, {"smiles": "COc1ccc(C(C)(C)C)cc1NC(=O)c1ccc[n+]([O-])c1", "activity change, negative = inhibition": "inactive: -22%"}, {"smiles": "O=C(O)c1ccc(N=Nc2c(O)ccc3ncccc23)cc1", "Potency": "inconclusive: 31.6 µM [inhibitor, partial curve]"}, {"smiles": "C=CCN(c1ccccc1)S(=O)(=O)c1ccc2c(c1)N(C(C)=O)CCO2", "Potency": "inconclusive: 0.251 µM [inhibitor, full curve, poor fit]"}, {"smiles": "CCCN1C(C(=O)c2ccccc2)=C(OC(=O)c2ccc(C)cc2)c2ccccc2S1(=O)=O", "Potency": "inconclusive: 44.7 µM [inhibitor, partial curve, poor fit]"}, {"smiles": "ON=C1/C(=N\\O)CC2(C/C1=N/O)OCCO2", "Potency": "inconclusive: 8.91 µM [inhibitor, full curve, poor fit]"}, {"smiles": "CCN1C(=O)[C@H]2[C@@H](c3ccc(-c4ccc(C(C)=O)cc4)cc3)N3CCC[C@@]3(C(=O)OC)[C@H]2C1=O", "Potency": "inconclusive: 100 µM [inhibitor, partial curve, poor fit]"}, {"smiles": "CC1=Nc2ccccc2N=C(NC(=O)c2ccccc2)C1c1ccc(Cl)cc1", "note": "(centres undefined)", "activity change, negative = inhibition": "inactive: -6.56%"}, {"smiles": "COc1ccc(C2N3CC4(C)CN2CC(c2ccccc2)(C3)C4=O)cc1", "note": "(centres undefined)", "Potency": "inconclusive: 0.251 µM [inhibitor, full curve, poor fit]"}, {"smiles": "O=C(COCc1cc(-c2ccco2)on1)Nc1cccc(Cl)c1Cl", "Potency": "inconclusive: 3.55 µM [inhibitor, full curve]"}, {"smiles": "O=C(Nc1ccc2[nH]c(=O)[nH]c2c1)c1ccc([N+](=O)[O-])o1", "Potency": "inconclusive: 50.1 µM [inhibitor, partial curve, poor fit]"}, {"smiles": "O=C(NC1CCCCC1)C(c1ccccn1)N(C(=O)c1csnn1)C1CCCCC1", "note": "(centres undefined)", "Potency": "inconclusive: 7.94 µM [inhibitor, single point]"}, {"smiles": "CCCCN(CC)CCCNC(=O)c1cn(CC)c2ccc(S(=O)(=O)N3CCOCC3)cc2c1=O", "activity change, negative = inhibition": "inactive: -7.08%"}, {"smiles": "CC(Oc1ccc2c3c(c(=O)oc2c1)CCCC3)C(=O)NCc1ccncc1", "note": "(centres undefined)", "Potency": "inconclusive: 14.1 µM [inhibitor, partial curve, poor fit]"}, {"smiles": "COc1cc(NC(=O)c2ncn(-c3ccccc3)n2)cc(OC)c1", "Potency": "inconclusive: 0.794 µM [inhibitor, full curve]"}, {"smiles": "CN1CC(C(=O)O)Cc2c1ccc1ccccc21", "note": "(centres undefined)", "Potency": "inconclusive: 31.6 µM [inhibitor, single point]"}, {"smiles": "O=C(NC1CC1)C1=C[C@@H](c2ccccc2)C[C@@H](OCc2ccc(CO)cc2)O1", "Potency": "inconclusive: 5.01 µM [inhibitor, partial curve]"}, {"smiles": "CCc1cc2c(-c3ccccc3)cc(=O)oc2cc1OC(C)C(C)=O", "note": "(centres undefined)", "Potency": "inconclusive: 35.5 µM [inhibitor, single point]"}, {"smiles": "CC(=O)n1cc([C@@H]2C=C(C(=O)NCc3ccccc3)O[C@H](OCc3ccc(CO)cc3)C2)c2ccccc21", "Potency": "inconclusive: 8.91 µM [inhibitor, partial curve]"}]}]}
